The record followed here is PubChem BioAssay AID445 (National Center for Advancing Translational Sciences (NCATS), 2006).

A short description of the assay: IkB Signaling. Particulars: ABC-DLBCL IkBa-CBG/CBR dual luciferase ratio (green luciferase fused to IkBa over red control in OCI-Ly3 lymphoma cells), 4 h. In outline: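 Curves were fitted separately to fusion (green), unfused (red) and ratio luminescence, then classed by r2, magnitude and activity. Cells: OCI-Ly3, 4 h compound plus doxycycline at 37C; 10 uM MG-132 defined full response.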
[1] abbreviates: measured here: control luc red channel unless noted.
The mark [2] stands for this setting: measured here: IkB-luc green channel.
Setting [3] is: measured here: control luc red channel.

The list shows a part of the results. Further columns of the screen follow, without active or inactive calls. Compounds called inactive in the main read-out are mostly missing here. Potencies come from curve fits of mixed quality, noted in brackets.

With `C=CCn1c(SCC(=O)N2CCN(c3ccc(F)cc3)CC2)nnc1-c1cccs1`, the half-maximal activity concentration (AC50) under setting [1] was 12.6 µM [falling, partial curve].
On the same count and under the same terms, under `Cc1ccc(-c2onc(C)c2C)cc1S(=O)(=O)NCc1cccs1` stands 39.8 µM [falling, single point]; under `CCc1nn(CC(=O)Nc2ccc(C)c(F)c2)c(=O)c2cc3cc(C)ccc3n12`, 0.794 µM [rising, full curve].
For the compound `Cc1ccc(N2C(=O)C(CC(=O)Nc3ccc(F)cc3)N(CCC3=CCCCC3)C2=O)cc1` (configuration not stated), under setting [1], the AC50 is 25.1 µM [falling, partial curve].
Regarding `CCOc1ccc(-c2nnc(SCC(=O)Nc3ccccc3C(F)(F)F)o2)cc1`, the AC50 under setting [1] is 0.00794 µM [rising, full curve, poor fit].
For the compound `CCCNC(=O)c1ccc2c(c1)ncn2-c1ccccc1OC`, the AC50 under setting [1] is 15.8 µM [falling, partial curve].
Regarding `COc1ccc(C2C(C#N)=C(N)Oc3n[nH]c(C)c32)cc1Cn1nnc2ccccc21` (configuration not stated), under setting [1], the AC50 is 25.1 µM [falling, single point].
As for `CCc1nc2ccccc2c(C(=O)OCC(=O)Nc2ccc(S(=O)(=O)N3CCOCC3)cc2)c1C`, under setting [1], the AC50 is 15.8 µM [falling, partial curve].
Still for that read-out and setting: then `Cc1cc(C)c(S(=O)(=O)Nc2ccc3oc4c(c3c2)CCCC4)cc1C`, with 12.6 µM [falling, partial curve]; and `CC(CNC(=O)CCn1c(=O)c2cccn2c2ccc(F)cc21)c1ccccc1` (configuration not stated), with 7.94 µM [falling, partial curve]; and `COc1ccc(C(=O)c2ccc(N(C)C)cc2)c(OC)c1`, with 0.398 µM [falling, partial curve].
Still for that read-out and setting: then `CC1(C)O[C@@H]2C[C@H]3[C@H]4C[C@H](F)C5=CC(=O)CC[C@]5(C)[C@@H]4[C@H](O)C[C@]3(C)[C@]2(C(=O)CO)O1`, with 2.51 nM [rising, full curve, poor fit] [measured here: IkB-luc green channel]; and `COc1ccc(CCNC(=O)C2CC(=O)N(CCc3ccccc3)C2)cc1OC` (configuration not stated), with 7.94 µM [rising, single point].
Still for that read-out and setting: under `CCCOc1ccc(C2c3c(oc4ccccc4c3=O)C(=O)N2c2ccc(C)cn2)cc1OCC` (configuration not stated) stands 0.158 µM [rising, full curve]; under `CCOC(=O)c1ccc(CN(Cc2ccc(F)cc2)S(=O)(=O)c2ccc(F)cc2)cc1`, 1.58 µM [falling, partial curve]; under `O=C(Nc1ccc(C(F)(F)F)cc1)c1cc(S(=O)(=O)NC2CCCCCC2)ccc1F`, 20 µM [falling, partial curve].
Regarding `Cc1ccc(C)c(NC(=O)Nc2nnc(N(CC(C)C)CC(C)C)s2)c1`, the AC50 under setting [1] was 25.1 µM [falling, single point].
On to `CCOc1cccc2sc(NC(=O)c3ccc(S(=O)(=O)N4CCCc5ccccc54)cc3)nc12`, for which, under setting [1], the half-maximal activity concentration (AC50) is 3.16 µM [falling, full curve].
As to `Cc1ccccc1S(=O)Cc1ccc(C(=O)NC2CCCCCC2)o1` (configuration not stated), under setting [1], the AC50 was 12.6 µM [falling, partial curve].
Still for that read-out and setting: then `O=C(CNS(=O)(=O)c1cccs1)N1CCN(c2ccccc2Cl)CC1`, with 3.98 µM [rising, partial curve]; and `O=C(Cn1cc(SCc2cccc(F)c2)c2ccccc21)N1CCCC1`, with 25.1 µM [falling, single point]; and `Cc1ccc2c(CNCc3cccc(Cl)c3)c(C(=O)O)n(Cc3ccc(F)cc3Cl)c2c1`, with 39.8 µM [falling, single point].
For `COc1ccc(CCNc2oc(COc3ccc(Br)cc3)nc2C#N)cc1OC`, the AC50 under setting [2] was 10 µM [falling, partial curve] and the AC50 under setting [3] is 7.94 µM [falling, full curve].
For `COc1cc(OC)c(NS(=O)(=O)c2cc3c(cc2C)NC(=O)CO3)cc1Cl`, the AC50 under setting [1] is 31.6 µM [falling, single point].
On the same count and under the same terms, then `O=C(Nc1nc2c(s1)CCCC2)c1ccc2ncsc2c1`, with 7.94 µM [falling, partial curve]; and `CC(=O)c1ccc(N2CCN(C(=O)C3CCN(S(=O)(=O)c4ccc(Br)s4)CC3)CC2)cc1`, with 12.6 µM [falling, partial curve]; and `Cc1ccc(NC(=O)c2nc(S(C)(=O)=O)ncc2N(Cc2ccco2)Cc2ccccc2F)c(C)c1`, with 15.8 µM [falling, single point].
Still for that read-out and setting: under `CCN(Cc1ccccc1)C(=O)CCS(=O)(=O)c1cc2c(cc1Cl)NC(=O)CO2` stands 1 µM [falling, partial curve, poor fit].
On to `O=C(Nc1ccccc1)Nc1ccccc1C(=O)NCc1ccco1`, for which the AC50 under setting [1] is 12.6 µM [falling, partial curve].
Still for that read-out and setting: under `CC(=O)N1CCN(c2ccc(Nc3ncnc4c3oc3ccccc34)cc2)CC1` stands 10 µM [falling, partial curve]; under `Cc1ccc(CNC(=O)c2nnn(-c3cccc(C)c3)c2N)cc1`, 5.01 µM [falling, partial curve]; under `COCCNC(=O)Cn1nc(-c2ccccc2)c2ccccc2c1=O`, 6.31 µM [falling, single point].
For `COc1cc(NC(=O)CN2C(=O)CCc3cc(Br)ccc32)cc(OC)c1OC`, the AC50 under setting [1] was 20 µM [falling, partial curve].
In the case of `Cc1cccc(-c2noc(-c3cc(C(C)C)[nH]n3)n2)c1`, the AC50 under setting [1] was 12.6 µM [falling, partial curve].
On the same count and under the same terms, under `CC(=O)N1c2ccccc2C(=O)C1N1CCN(c2cccc(Cl)c2)CC1` (configuration not stated) stands 39.8 µM [falling, partial curve]; under `Cc1cc2cc(CN(Cc3ccc4c(c3)OCO4)Cc3nnnn3C3CCCC3)c(=O)[nH]c2cc1C`, 15.8 µM [falling, partial curve].
Consider `Cc1ccc(Cn2c(CCNC(=O)c3cccc(C)c3)nc3ccccc32)cc1`, for which, under setting [1], the AC50 was 25.1 µM [falling, single point].
For the compound `COc1ccc(Cl)cc1NC(=O)CSC1=Nc2ccccc2C2=NC(CCC(=O)NCc3ccco3)C(=O)N12` (configuration not stated), the concentration at half-maximal activity (AC50) under setting [1] is 39.8 µM [falling, single point].
The same measure, in the same setting: under `Cc1cccc(NC(=O)CN2C(=O)C3(SCC(=O)N3c3ccccc3)c3ccccc32)c1` (configuration not stated) stands 31.6 µM [falling, single point]; under `Cc1ccc(S(=O)(=O)N2CCN(Cc3ccccc3Cl)CC2)cc1`, 25.1 µM [falling, partial curve, poor fit]; under `CC(C)Cn1cc(NC(=O)NCc2cccc(Cl)c2)c2ccccc2c1=O`, 6.31 µM [falling, partial curve].
`COc1ccc(NC(=O)c2cccc(N3CCCS3(=O)=O)c2)c(OC)c1`: the AC50 under setting [1] was 12.6 µM [falling, single point].
Still for that read-out and setting: under `O=C(NCCc1ccccc1)c1ccc2c(c1)N(Cc1ccc(F)cc1)C(=O)CS2` stands 31.6 µM [falling, single point]; under `O=C(NCCC1=CCCCC1)c1ccc2c(c1)sc1nc(-c3ccc(F)cc3)cn12`, 31.6 µM [falling, single point].
Turning to `CCN(CC)c1ccc(NC(=O)CN2CCN(CC(=O)Nc3ccc(Cl)cc3)CC2)cc1`, under setting [1], the AC50 is 15.8 µM [falling, partial curve].
Turning to `CC1(C)O[C@H]2C[C@@H]3[C@H]4CCC5=CC(=O)CC[C@@]5(C)[C@]4(F)[C@@H](O)C[C@@]3(C)[C@@]2(C(=O)CCl)O1`, under setting [1], the AC50 was 6.31 µM [rising, full curve] [measured here: IkB-luc green channel].
Same read-out and setting: under `Cc1ccc(CSc2cn(CC(=O)N3CCCCCC3)c3ccccc23)cc1` stands 10 µM [falling, partial curve]; under `CCCN(Cc1cc2cccc(C)c2[nH]c1=O)C(=O)c1cccc(Cl)c1`, 15.8 µM [falling, partial curve].
Same read-out and setting: then `COc1ccccc1NC(=O)CC(C)n1nc(C)cc1C` (configuration not stated), with 2 µM [falling, partial curve]; and `CCOC(=O)c1ccc(NC(=O)CSc2nc3c(c(=O)[nH]2)CN(Cc2ccccc2)CC3)cc1`, with 3.16 µM [falling, full curve]; and `COc1ccc(-n2nc3c(N4CCC(C(=O)NCc5ccccc5C)CC4)nnc(C)c3c2C)cc1`, with 12.6 µM [falling, single point].
`CCOC(=O)N1CCC(NC(=O)c2c(C)nn(-c3cccc(C)c3)c2-n2cccc2)CC1`: the AC50 under setting [1] is 25.1 µM [falling, partial curve, poor fit].
Regarding `Cc1nc(SCC(=O)N(C)Cc2ccco2)c2c(C)c(C)sc2n1`, the AC50 under setting [1] is 25.1 µM [falling, single point].
On the same count and under the same terms, under `CN(CC(=O)Nc1ccc(C#N)cc1)Cc1ccc(Cl)cc1` stands 25.1 µM [falling, single point]; under `Cc1ccc(N(CC(=O)N2CCN(c3ccc(F)cc3)CC2)S(=O)(=O)c2c(C)noc2C)cc1`, 10 µM [falling, partial curve]; under `CC(C)(C)C(=O)NCCc1nc2ccccc2n1CCCCOc1ccccc1`, 25.1 µM [falling, partial curve].
On the same count and under the same terms, under `COC(=O)c1ccccc1NS(=O)(=O)c1cc2c(cc1C)N(C)CCO2` stands 15.8 µM [falling, single point].
Same read-out and setting: under `COc1ccccc1N1CCN(C(=O)CN2C(=O)COc3ccc(S(=O)(=O)N4CCOCC4)cc32)CC1` stands 20 µM [falling, partial curve, poor fit]; under `CCN(CC)C(=O)c1c(-c2ccccc2)c(-c2ccccc2)nn(CC)c1=O`, 12.6 µM [falling, partial curve].
Take `COc1ccc(CCC(=O)NC2CC(=O)N(c3ccc(F)cc3)C2)cc1` (configuration not stated): the concentration at half-maximal activity (AC50) under setting [2] was 3.98 µM [rising, full curve, poor fit] and the AC50 under setting [3] was 6.31 µM [rising, single point].

As a reminder, the AC50 is the midpoint of the concentration-response curve, whichever way the signal moves.
